Data as given in article PMC10936212.
For at least one entry, the source does not settle the construct or the ends of the probe.

Assays:
[1] = biological target: T1, CosR (Campylobacter jejuni) (UniProt A0A3H9R6A1); test: X-ray crystallography; settings: recombinant protein, protein details: C-terminal 6xHis
[2] = biological target: T1, CosR (Campylobacter jejuni); test: cryo-EM; settings: 20 uM CosR, 10 uM DNA, apo, complex and free DNA classes seen, only apo model (8UUZ) deposited; recombinant protein; protein details: C-terminal 6xHis

Sequence: TATTAACCAAAATTAAGATAT (double strand) [DNA1 (crystal)]
- binding result ([1]; 2.90 A, dimer bridges two DNA1 duplexes): binds

Sequence: AATAATTTTATTAACCAAAATTAAGATATAATTAGCCAAA (double strand) [40 bp cmeABC promoter DNA]
- binding result [2]: binds

Sequence: AATTAAGATATTATTAACCAA (double strand) [DNA2 (crystal)]
- binding result ([1]; 2.20 A, one dimer per duplex): binds
